According to publication PMC9378658:
Like-named read-outs stand apart in the source and are kept apart here. No constants are given. Whether binding was seen depends on the method and setting. Binding seen in cells or lysates may run through a third protein. Some entries that bind do so weakly or less than the wild type.

Protein sequences, listed by entry. Tags and fused reporters are not part of them.
UniProt P46414: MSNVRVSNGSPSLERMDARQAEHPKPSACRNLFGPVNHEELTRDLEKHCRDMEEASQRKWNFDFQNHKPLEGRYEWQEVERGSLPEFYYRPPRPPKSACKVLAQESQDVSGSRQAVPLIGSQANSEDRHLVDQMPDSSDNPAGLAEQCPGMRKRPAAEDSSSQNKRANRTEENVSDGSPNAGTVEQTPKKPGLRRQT
UniProt P61809: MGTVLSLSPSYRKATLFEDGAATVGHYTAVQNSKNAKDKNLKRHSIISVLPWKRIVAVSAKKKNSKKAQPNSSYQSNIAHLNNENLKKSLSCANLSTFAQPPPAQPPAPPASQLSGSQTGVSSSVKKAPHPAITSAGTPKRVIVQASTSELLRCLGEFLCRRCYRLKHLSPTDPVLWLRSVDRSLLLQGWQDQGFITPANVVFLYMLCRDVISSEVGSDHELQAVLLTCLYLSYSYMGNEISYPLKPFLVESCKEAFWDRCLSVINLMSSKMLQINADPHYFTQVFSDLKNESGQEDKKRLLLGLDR
UniProt P25322: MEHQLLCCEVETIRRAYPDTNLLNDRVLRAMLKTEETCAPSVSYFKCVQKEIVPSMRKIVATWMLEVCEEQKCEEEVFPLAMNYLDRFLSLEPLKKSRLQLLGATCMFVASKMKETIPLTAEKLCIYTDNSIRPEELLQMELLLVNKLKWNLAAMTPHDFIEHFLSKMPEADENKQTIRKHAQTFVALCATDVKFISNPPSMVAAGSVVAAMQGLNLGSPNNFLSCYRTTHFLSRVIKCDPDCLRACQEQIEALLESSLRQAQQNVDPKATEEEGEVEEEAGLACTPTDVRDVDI
UniProt Q9R1E0: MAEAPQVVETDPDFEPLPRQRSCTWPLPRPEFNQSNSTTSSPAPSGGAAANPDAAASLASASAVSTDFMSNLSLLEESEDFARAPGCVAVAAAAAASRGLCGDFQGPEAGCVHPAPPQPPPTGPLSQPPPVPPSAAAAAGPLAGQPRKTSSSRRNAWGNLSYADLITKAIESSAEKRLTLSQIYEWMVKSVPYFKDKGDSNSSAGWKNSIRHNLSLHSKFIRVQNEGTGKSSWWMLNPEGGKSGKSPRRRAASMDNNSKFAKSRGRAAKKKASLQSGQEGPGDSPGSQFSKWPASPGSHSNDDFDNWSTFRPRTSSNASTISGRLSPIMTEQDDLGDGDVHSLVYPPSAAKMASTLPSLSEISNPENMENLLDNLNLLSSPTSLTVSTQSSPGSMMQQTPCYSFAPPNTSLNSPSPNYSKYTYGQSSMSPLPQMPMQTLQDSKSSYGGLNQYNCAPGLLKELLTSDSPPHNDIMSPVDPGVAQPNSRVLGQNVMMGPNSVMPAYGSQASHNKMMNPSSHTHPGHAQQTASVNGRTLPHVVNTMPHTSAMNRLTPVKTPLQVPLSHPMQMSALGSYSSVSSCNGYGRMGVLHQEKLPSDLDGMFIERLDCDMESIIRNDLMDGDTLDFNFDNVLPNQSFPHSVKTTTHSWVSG
UniProt Q8R0K9: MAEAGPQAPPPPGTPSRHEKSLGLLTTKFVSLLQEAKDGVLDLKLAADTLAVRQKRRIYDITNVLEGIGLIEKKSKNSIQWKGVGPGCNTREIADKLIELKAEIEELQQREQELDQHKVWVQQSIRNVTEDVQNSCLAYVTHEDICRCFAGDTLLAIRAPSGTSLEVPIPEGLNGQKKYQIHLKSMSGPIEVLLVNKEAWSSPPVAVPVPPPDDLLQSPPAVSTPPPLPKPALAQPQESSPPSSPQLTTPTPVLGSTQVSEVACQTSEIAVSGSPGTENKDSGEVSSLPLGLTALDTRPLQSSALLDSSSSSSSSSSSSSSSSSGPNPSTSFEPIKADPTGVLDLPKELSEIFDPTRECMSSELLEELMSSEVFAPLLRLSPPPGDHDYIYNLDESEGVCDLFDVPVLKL

How the values were obtained:
Assay in all cases: co-IP; endogenous proteins; WM tissue extracts of Nx and Hx mice at P18 in RIPA buffer with 2% Triton-X-100 and 0.2% SDS; 270 µg aliquots incubated overnight with antibody and Agarose A; washed twice in RIPA; immunoblot for the expected co-precipitating protein
[1] = target: T1, Sirt2 (mouse (endogenous in subcortical white matter)) (UniProt Q8VDQ8)
T1 sequence: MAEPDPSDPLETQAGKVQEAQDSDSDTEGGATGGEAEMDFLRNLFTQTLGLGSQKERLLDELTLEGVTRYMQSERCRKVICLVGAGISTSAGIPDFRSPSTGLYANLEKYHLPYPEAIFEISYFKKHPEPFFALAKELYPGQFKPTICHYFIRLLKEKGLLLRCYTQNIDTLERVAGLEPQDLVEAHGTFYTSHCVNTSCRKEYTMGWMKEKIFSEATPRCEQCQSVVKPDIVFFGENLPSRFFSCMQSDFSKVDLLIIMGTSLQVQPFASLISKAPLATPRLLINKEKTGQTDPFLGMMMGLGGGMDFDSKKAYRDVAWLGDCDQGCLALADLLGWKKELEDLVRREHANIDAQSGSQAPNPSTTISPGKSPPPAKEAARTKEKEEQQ

[2] = target: Cdk5 (mouse (endogenous in subcortical white matter)) (UniProt P49615)
[3] = target: T2, Cdk4 (mouse (endogenous in subcortical white matter)) (UniProt P30285)
T2 sequence: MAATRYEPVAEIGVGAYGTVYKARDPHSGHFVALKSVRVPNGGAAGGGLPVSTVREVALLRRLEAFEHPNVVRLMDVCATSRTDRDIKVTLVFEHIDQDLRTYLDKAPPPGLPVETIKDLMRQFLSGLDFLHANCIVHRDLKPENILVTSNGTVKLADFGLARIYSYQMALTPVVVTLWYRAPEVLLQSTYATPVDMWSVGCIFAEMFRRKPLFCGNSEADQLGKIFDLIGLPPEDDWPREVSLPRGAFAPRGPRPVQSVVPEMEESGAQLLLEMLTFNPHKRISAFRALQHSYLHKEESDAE

[4] = target: T3, p107 (mouse (endogenous in subcortical white matter)) (UniProt Q64701)
T3 sequence: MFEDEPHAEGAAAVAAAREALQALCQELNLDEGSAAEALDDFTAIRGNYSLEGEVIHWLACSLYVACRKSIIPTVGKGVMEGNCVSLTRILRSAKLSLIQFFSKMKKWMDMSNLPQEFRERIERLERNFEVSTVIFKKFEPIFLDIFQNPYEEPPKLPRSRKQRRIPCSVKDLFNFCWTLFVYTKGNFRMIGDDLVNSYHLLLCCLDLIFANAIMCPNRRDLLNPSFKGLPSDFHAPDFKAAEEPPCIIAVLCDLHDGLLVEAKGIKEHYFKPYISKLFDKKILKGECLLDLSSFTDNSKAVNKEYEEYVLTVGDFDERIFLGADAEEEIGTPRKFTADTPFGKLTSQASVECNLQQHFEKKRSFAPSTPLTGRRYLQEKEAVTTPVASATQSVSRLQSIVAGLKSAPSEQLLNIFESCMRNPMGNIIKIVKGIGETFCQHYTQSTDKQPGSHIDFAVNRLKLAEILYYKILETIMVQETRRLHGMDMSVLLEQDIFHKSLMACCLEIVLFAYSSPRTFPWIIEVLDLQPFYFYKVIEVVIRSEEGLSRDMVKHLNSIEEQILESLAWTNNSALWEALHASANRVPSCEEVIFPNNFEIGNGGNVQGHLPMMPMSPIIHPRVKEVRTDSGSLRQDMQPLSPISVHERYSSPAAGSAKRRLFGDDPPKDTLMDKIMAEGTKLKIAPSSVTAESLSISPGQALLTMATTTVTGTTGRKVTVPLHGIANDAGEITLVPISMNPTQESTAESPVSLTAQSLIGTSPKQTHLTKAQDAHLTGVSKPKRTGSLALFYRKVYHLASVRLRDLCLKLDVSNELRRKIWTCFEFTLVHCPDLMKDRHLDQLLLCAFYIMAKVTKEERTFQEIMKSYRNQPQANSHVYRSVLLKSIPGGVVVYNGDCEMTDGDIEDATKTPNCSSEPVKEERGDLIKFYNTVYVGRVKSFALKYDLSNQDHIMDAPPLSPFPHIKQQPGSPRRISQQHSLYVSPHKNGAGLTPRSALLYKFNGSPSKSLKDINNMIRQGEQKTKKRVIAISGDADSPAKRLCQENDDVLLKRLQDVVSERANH

[5] = target: T1, Sirt2 (mouse (endogenous in subcortical white matter)); remark: listed apart in the source

p27^Kip1 (from UniProt P46414 1-197) was tested, and the binding [1] was “binds”.

For p35 (from UniProt P61809 1-307), the binding [2] was “binds”.

CyclinD1 (from UniProt P25322 1-295) was tested, and the binding [3] was “binds”.

Cdk5 (from UniProt P49615 1-292) was tested, and the binding [1] was “binds”.

With FoxO1 (from UniProt Q9R1E0 1-652) the binding [1] was “binds”.

In the case of E2F4 (from UniProt Q8R0K9 1-410), the binding [4] is reported as “binds”.

B1: p21^Cip1 (protein, UniProt P39689 1-159)
chain: MSNPGDVRPVPHRSKVCRCLFGPVDSEQLRRDCDALMAGCLQEARERWNFDFVTETPLEGNFVWERVRSLGLPKVYLSPGSRSRDDLGGDKRPSTSSALLQGPAPEDHVALSLSCTLVSERPEDSPGGPGTSQGRKRRQTSLTDFYHSKRRLVFCKRKP
In the case of B1, the binding [5] is reported as “binds”.
